According to US5939383 (dated 1999):

Assay: general procedure: Fmoc solid-phase peptide synthesis in flow; Fmoc-PAL-PEG-PS (substitution 0.16 mmol/g); TBTU/DIEA; cyclization with TBTU, BOP or HATU
Settings: whole synthesis, scale of the general procedure 0.4 to 1.2 g resin

Substance | outcome | crude yield | isolated yield
cyclo[-D-Val-Arg-Gly-Asp-Asp(-εAhx-Cys-NH2)-] | The method failed to give the expected product as more than five different compounds were identified |  | 
cyclo[-D-Val-Arg-Gly-Asp-Glu(-εAhx-Cys-NH2)-] |  | above 85% | around 40%
